{"source": "patent US10695337B2", "about": "“Piperidin-4-yl azetidine derivatives as JAK1 inhibitors” (Incyte Corporation, priority 2010, dated 2020)", "target": "human JAK1 (a.a. 837-1142)", "test": "In vitro JAK kinase assay (HTRF, phosphorylation of a biotinylated peptide), JAK1", "type": "biochemical", "conditions": "measured at 1 mM ATP", "description": "Compounds herein were tested for inhibitory activity of JAK targets according to the following in vitro assay described in Park et al., Analytical Biochemistry 1999, 269, 94-104. The catalytic domains of human JAK1 (a.a. 837-1142), Jak2 (a.a. 828-1132) and Jak3 (a.a. 781-1124) with an N-terminal His tag were expressed using baculovirus in insect cells and purified. The catalytic activity of JAK1, JAK2 or JAK3 was assayed by measuring the phosphorylation of a biotinylated peptide. The phosphorylated peptide was detected by homogenous time resolved fluorescence (HTRF). […] Reactions were carried out at room temperature for 1 hr and then stopped with 20 μL 45 mM EDTA, 300 nM SA-APC, 6 nM Eu-Py20 in assay buffer (Perkin Elmer, Boston, Mass.). Binding to the Europium labeled antibody took place for 40 minutes and HTRF signal was measured on a Fusion plate reader (Perkin Elmer, Boston, Mass.).", "note": "At least one compound was matched to its structure with a doubt left."}
{"smiles": "N#CCC1(n2cc(-c3ncnc4[nH]ccc34)cn2)CN(C2CCN(C(=O)OCC3CCCC3)CC2)C1", "note": "[Example 396, cyclopentylmethyl 4-{3-(cyanomethyl)-3-[4-(7H-pyrrolo[2,3-d]pyrimidin-4-yl)-1H-pyrazol-1-yl]azetidin-1-yl}piperidine-1-carboxylate]", "values": [{"measurement": "IC50 Ratio JAK2/JAK1", "result": 7.1}]}
